In article PMC4671723 one finds binding data, which are given here for two molecules.

The assay concerns the target T1, ALP1-GFP (ANTAGONIST OF LIKE HETEROCHROMATIN PROTEIN1 fused in frame to GFP) (Arabidopsis), Q94K49.
T1 chain: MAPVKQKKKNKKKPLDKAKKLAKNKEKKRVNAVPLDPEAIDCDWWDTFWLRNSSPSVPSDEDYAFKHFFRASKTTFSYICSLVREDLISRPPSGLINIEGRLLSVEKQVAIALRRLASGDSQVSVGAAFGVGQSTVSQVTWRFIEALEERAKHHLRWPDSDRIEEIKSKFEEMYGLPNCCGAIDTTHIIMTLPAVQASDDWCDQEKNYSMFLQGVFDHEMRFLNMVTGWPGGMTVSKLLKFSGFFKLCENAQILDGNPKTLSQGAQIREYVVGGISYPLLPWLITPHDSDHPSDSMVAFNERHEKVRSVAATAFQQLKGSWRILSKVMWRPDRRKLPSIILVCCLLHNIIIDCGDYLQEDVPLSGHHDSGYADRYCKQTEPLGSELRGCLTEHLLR
Kind of assay: co-IP; extracts from 35S::ALP1-GFP plants immunoprecipitated with anti-GFP antibodies different from those of the IP-MS; Western blot with anti-CLF or anti-MSI1 antibodies. To be noted: remark: other sources report otherwise. Background: Immunoblotting shows a protein as a band on a membrane.

These are yes or no findings as the source states them, for the method shown. Binding seen in cells or lysates may run through a third protein. Some entries that bind do so weakly or less than the wild type. Where a sequence is shown, tags or fusion partners need not be part of it.

B1: CURLY LEAF (CLF), P93831 1-902 (protein)
chain: MASEASPSSSATRSEPPKDSPAEERGPASKEVSEVIESLKKKLAADRCISIKKRIDENKKNLFAITQSFMRSSMERGGSCKDGSDLLVKRQRDSPGMKSGIDESNNNRYVEDGPASSGMVQGSSVPVKISLRPIKMPDIKRLSPYTTWVFLDRNQRMTEDQSVVGRRRIYYDQTGGEALICSDSEEEAIDDEEEKRDFLEPEDYIIRMTLEQLGLSDSVLAELASFLSRSTSEIKARHGVLMKEKEVSESGDNQAESSLLNKDMEGALDSFDNLFCRRCLVFDCRLHGCSQDLIFPAEKPAPWCPPVDENLTCGANCYKTLLKSGRFPGYGTIEGKTGTSSDGAGTKTTPTKFSSKLNGRKPKTFPSESASSNEKCALETSDSENGLQQDTNSDKVSSSPKVKGSGRRVGRKRNKNRVAERVPRKTQKRQKKTEASDSDSIASGSCSPSDAKHKDNEDATSSSQKHVKSGNSGKSRKNGTPAEVSNNSVKDDVPVCQSNEVASELDAPGSDESLRKEEFMGETVSRGRLATNKLWRPLEKSLFDKGVEIFGMNSCLIARNLLSGFKSCWEVFQYMTCSENKASFFGGDGLNPDGSSKFDINGNMVNNQVRRRSRFLRRRGKVRRLKYTWKSAAYHSIRKRITEKKDQPCRQFNPCNCKIACGKECPCLLNGTCCEKYCGCPKSCKNRFRGCHCAKSQCRSRQCPCFAADRECDPDVCRNCWVIGGDGSLGVPSQRGDNYECRNMKLLLKQQQRVLLGISDVSGWGAFLKNSVSKHEYLGEYTGELISHKEADKRGKIYDRENCSFLFNLNDQFVLDAYRKGDKLKFANHSPEPNCYAKVIMVAGDHRVGIFAKERILAGEELFYDYRYEPDRAPAWAKKPEAPGSKKDENVTPSVGRPKKLA
B1: the binding entry is recorded as “binds”.

B2: MSI1, O22467 1-424 (protein)
chain: MGKDEEEMRGEIEERLINEEYKIWKKNTPFLYDLVITHALEWPSLTVEWLPDREEPSGKDYSVQKMILGTHTSESEPNYLMLAQVQLPLDDTESEARQYDDDRSEFGGFGCATGKVQIIQQINHDGEVNRARYMPQNPFIIATKTVNAEVYVFDYSKHPSKPPLDGACNPDLKLRGHSSEGYGLSWSKFKQGHLLSGSDDAQICLWDINATPKNKSLDAQQIFKAHEGVVEDVAWHLRHEYLFGSVGDDQYLLIWDLRSPSASKPVQSVVAHSMEVNCLAFNPFNEWVVATGSTDKTVKLFDLRKLSTALHTFDSHKEEVFQVGWNPKNETILASCCLGRRLMVWDLSRIDEEQTVEDAEDGPPELLFIHGGHTSKISDFSWNPCEDWVISSVAEDNILQIWQMAENIYHDEDDAPGEEPSKAS
Turning to B2, the binding entry is on record as “binds”.
